Measurements reported in the supplement of paper PMC3334620.
Whole data set: some 33,000 sequences, median “E-score (-0.5 to 0.5)” near -0.0059, cut for the highest 2% near 0.26. The list shows a part of the results.

target: T1, Cin5 (UniProt P40917); experiment: PBM E-score (8-mer binding enrichment) (E-score (-0.5 to 0.5)); higher = stronger / more preferred TF binding; conditions: protein concentration: 100 nM; construct: GST-full length
T1 sequence: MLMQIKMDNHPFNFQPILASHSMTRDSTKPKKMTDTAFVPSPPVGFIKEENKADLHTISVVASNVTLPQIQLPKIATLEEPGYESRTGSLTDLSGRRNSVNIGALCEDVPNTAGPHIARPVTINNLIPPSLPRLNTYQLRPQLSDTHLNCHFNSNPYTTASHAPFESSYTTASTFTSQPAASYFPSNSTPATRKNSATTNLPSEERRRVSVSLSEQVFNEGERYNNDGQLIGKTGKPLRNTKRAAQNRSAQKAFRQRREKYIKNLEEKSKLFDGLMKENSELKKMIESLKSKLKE
How it was run: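 Yeast transcription factors carrying a GST tag, as full-length proteins or DNA-binding domains, were produced by PURExpress in vitro transcription/translation. About 100-200 nM protein was applied to universal all-10-mer Agilent arrays, double-stranded by primer extension on fresh or once-stripped slides. Bound protein was detected with fluorescent anti-GST, and scans were normalised with masliner. The Universal PBM Analysis Suite gave each ungapped eight-base word, pooled with its reverse complement, an E-score, a modified Wilcoxon-Mann-Whitney statistic.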

Sequence	PBM E-score
GTATGTCA	0.175
GAGCAGCC	-0.169
AGGCCGTA	-0.0235
CGCATGCA	0.144
AGCGGTGA	-0.135
ACTAAGAG	-0.0246
AGTAATAA	0.193
GATTTCGA	0.11
CAGAACAG	0.167
AGAAAGAC	0.0383
GAAATGCC	0.0239
CTACATCC	0.0132
CATAAGTC	0.0502
CAGTACAC	0.0208
AATAGTGC	0.122
GGACGTCC	0.0213
CCCCAACC	-0.0681
CCCGGGAG	-0.179
GTGTCAGA	-0.0558
GTACTGCA	-0.0881
ACTGCTCT	-0.0719
GACCAATC	0.101
GACGTGCC	-0.25
TCCCTGCA	0.0413
AGGGGGTC	-0.459

Sequence	PBM E-score
ATGGCCTA	-0.0413
ATTAACGG	0.0948
GTTGAGAA	0.00602
ACGAAACC	0.184
CAGGTCGA	0.0591
ACTTCTCG	0.0826
AACTCGTC	0.0765
GGATTCGA	-0.205
AAGTTGAG	0.0781
AAGACTGT	-0.186
CCATTTAA	0.0977
ATCCTTGG	0.085
AGAAAAAA	0.00216
CACTCAGC	0.0793
GCACCGAA	0.0053
AATTCGAG	-0.129
AGGGGCAA	-0.0834
AGTGTTGA	0.167
AAGTGATG	0.0728
CAGGGTTC	-0.071
CATTGGGG	-0.0653
AAAGCGAA	0.194
ATCCATTC	0.127
AGTCTAGG	-0.244
GGGACCGA	-0.154

Sequence	PBM E-score
GGTATTAC	0.271
CGTACTGC	-0.0186
AATACCCA	0.163
AAACAAGG	-0.0987
TATTTAAA	0.242
GTAAGACA	0.111
AATTGCAC	0.177
AGTTCCAA	-0.0924
GCAACGGA	0.117
GTTTGAGA	0.0852
CAGTACCG	-0.106
TAAGCAAA	0.192
ATAGAAGC	-0.00312
CGTAGAAC	-0.251
AACTCACC	0.0692
ACAATCTC	0.0307
GAAAAATC	0.154
CTGTCTAC	0.0024
GACGTTTA	0.0501
ACTGGCCG	-0.174
AGGATGTA	0.166
GTCCTGGA	-0.264
ACCTGTAT	0.0163
AAAATCGG	0.0238
GACGATGA	-0.101

Sequence	PBM E-score
CCGCGTTC	0.0509
AGCGGTAG	-0.15
CAGGGGGC	-0.383
GCCCGCGA	-0.00677
CTTCTCCA	-0.0877
AGTTCCCA	0.147
AGGGTCCG	-0.218
ACAGGTGA	0.152
CATATCGG	-0.0521
TGTGTCAA	-0.0182
CAGGACGC	-0.18
CAAATATA	0.166
CGCGATGC	-0.288
GGCCGCGA	-0.196
AGGAATTG	0.148
CAGCTGAA	0.0137
ATCCCGGG	0.0898
CCGAGTAG	0.146
ATCTCCGA	0.138
TCTTCACA	-0.00388
CGCACAAC	0.0596
ATGAAGCC	0.126
ACTGAGTC	0.0257
GTGATATA	0.0895
CACCTAGC	-0.172

Sequence	PBM E-score
TGTCACAA	0.146
CTTACCAA	0.286
CTATACCC	-0.0148
ACTAACCT	0.147
AATGAATA	0.15
GTACCGCA	0.0528
CGGACGAG	-0.134
GCCTGTCC	-0.207
CCAACACG	0.0425
GATGCTGA	-0.139
ACGGAAAG	0.245
GACGCTAC	-0.0265
CTACTAGC	0.109
ACGACCCC	-0.0873
GGCCCCCA	-0.485
ACTCAAAC	0.034
GGGGGGTA	-0.487
AACAATTG	0.0983
GACTTACC	-0.0423
CTCAGCGC	0.0746
ACAACAGT	0.0785
AACGGCAT	0.237
CAGATGAC	-0.0913
TCCGCAGA	-0.0763
ATCCGCGC	-0.0165

Sequence	PBM E-score
AATCTCGG	0.0258
GATCAACA	-0.0699
CGTGAGAC	0.00946
CACGAGCA	-0.0126
AAACCTGG	-0.039
CCCTCAGC	-0.0662
AAATCACG	0.152
CCCGCGGC	0.0548
GGCCTCAA	-0.0254
AGCCCCGG	-0.151
CATACATG	0.112
CTCCAAGC	-0.0875
GGGCGCGA	0.0157
AGAGGAAG	-0.174
CAGCCTCC	-0.28
ACTCGCAA	-0.0176
ATGTTACG	-0.125
GGGTTTTA	0.0599
ACGCCCGG	-0.178
CTTTACTC	0.191
CGGGGCTA	-0.18
AAGTCTTG	-0.119
AAAAGCTA	0.0723
ATAAAGTA	0.264
CACCCTCA	-0.126

Sequence	PBM E-score
AGTACCCA	0.00962
CTGCTCCC	-0.161
TCCTTAAA	-0.0659
AGCATCGA	0.0188
AACATCTT	-0.0627
TGTGCGAA	-0.133
ATGCAAGA	0.127
GAAGTCTA	-0.0123
ACCAGGCG	-0.12
AGGATAAT	0.177
GCAATGAC	-0.161
CGGTAGTC	-0.127
TCCCACAA	-0.0432
CCATTAAG	-0.0114
AAAACATT	0.0962
AGAAATAT	0.189
CGGAGTAA	0.0682
GACGTGGC	-0.186
AATAACTA	0.212
CGTCGAGA	0.049
CTTATTCA	0.142
TAATAAGA	0.105
ATTAAAAT	0.207
ATCCCTGG	-0.207
CGGGACTC	-0.13

A section of the results above, for reference:
Sequence	PBM E-score
GCACCGAA	0.0053
AATTCGAG	-0.129
AGGGGCAA	-0.0834
AGTGTTGA	0.167

(listing goes on)

Sequence	PBM E-score
GCTTTGGA	0.0963
AACATCGC	0.0345
CAACTCCA	0.0308
AATTGGAT	0.159
AAACACGC	0.0173
GACCTCTA	-0.159
CAAGTAGG	-0.143
GACGATCA	-0.141
GTCATAAA	0.0135
ACGTCGCG	-0.0544
CTGACTCA	0.108
CAGTACGC	-0.00348
CAATGTGG	0.0271
ACTAGATA	0.147
ATAGTTTC	0.133
ATAAAGTG	0.149
CCTAGGAA	-0.0125
GATGTCTA	-0.0949
AATGGAAT	0.254
CCTTTACG	0.171
CTGAAGCC	-0.138
AAGTTATT	0.178
CAGTCGAA	-0.0494
GATCTGAA	-0.153
ACGCTAAA	-0.0625

Random excerpt: 6 records from the list, in no set order.
Sequence	PBM E-score
CAGCTGAA	0.0137
GGGACCGA	-0.154
AATCTCGG	0.0258
CTGTCTAC	0.0024
AATTGGAT	0.159
ACGGAAAG	0.245

Further records follow.

Sequence	PBM E-score
GGCCATCA	0.086
ACCTTCAT	0.0567
GGCGAGAC	-0.122
ATTTTGTC	-0.00928
CCTTTCCA	-0.0665
CGATAACC	0.0481
GCCTCTAA	-0.124
GGTCAGAC	-0.264
ATCCATCA	0.172
CAGTGCCC	-0.192
AATACTCC	-0.00991
GAACTAAC	-0.0148
CGTCGGGC	-0.366
CTTATCCC	-0.0209
ACTGAGGC	-0.0128
AATCTATC	0.118
AACTGGAT	0.126
GACCTTTA	0.00652
GCACGGGA	-0.0662
CTGCCCGC	0.038
CGGTTATA	0.0931
GAAGCGTA	0.121
ATTTAAGC	0.25
CGAATCCA	-0.00541
TGTATACA	0.217

Sequence	PBM E-score
GCAGCCTA	-0.254
GTGCATTA	0.0714
CACATCGG	-0.121
AGCATCTA	0.00891
GGCACCTA	-0.0967
AGAGAATA	0.222
AGTAATTC	0.194
AGTCGAGC	-0.165
AAACATTG	-0.0181
TCCCTTCA	-0.11
ACACCCAG	-0.131
CTATCCAA	-0.105
AATAAGGG	0.0887
AACATCGG	-0.084
ACGCTACG	-0.109
GACGTAGC	-0.282
CTGTCCTC	-0.142
CGTAAACA	0.146
GTATGTGA	0.0438
GTCAGGTA	-0.0517
ATAGAGCA	0.113
CATATGTA	0.172
AGCTGACG	0.158
CGACATGA	-0.0587
TAGCTTCA	-0.00071

Sequence	PBM E-score
GGACCAAC	-0.134
CGAGGTAC	-0.153
AAATGGGC	-0.0629
CTACTTCC	0.0929
TAGTGATA	-0.0113
ATATTCTA	0.201
CTTCATTA	0.215
CAACACCA	0.112
GGTGATGA	0.181
GGAGATGA	0.0743
AAACGAAC	0.0876
CGCTACCA	-0.143
TACGAGCA	-0.0525
CCTTTTCC	-0.0969
GTTGCTGA	0.12
ACAAACAC	0.156
GGTCAACA	0.0999
CATTTTGC	0.176
CATCAACC	0.106
AACCAGCG	-0.0946
AGGGATAC	-0.0905
CTCAATAC	0.162
GTTCATGA	0.143
AGCGCATG	0.029
CATTAGCG	0.02

Sequence	PBM E-score
ATGCTCAG	0.0984
AGCAGAAA	0.122
AGAGATGA	0.0149
GATTCCTA	-0.0731
AACCCAAC	0.17
ACTAGAAA	0.00187
TAGTCCCA	-0.0797
ATGAAGCA	0.0283
ACTTTGAC	0.0383
ATTGCGTA	0.287
AAGTGGCC	-0.0504
AAGTACTA	0.201
AATGACGT	0.116
ATAGCTAT	-0.0552
CATCCGCG	0.109
TGATCCAA	0.0932
ACTATACA	0.0855
CGAGGGTA	-0.151
TAATATGA	0.262
CGTAATGA	0.222
ATAAGGAT	0.223
ACAGCTTA	0.195
CTTGAAGA	-0.124
GCTGGTAA	-0.08
CGGCATCA	0.00938

Sequence	PBM E-score
CTCGAGAA	-0.0673
GTAAAACA	0.126
AGTAGTTA	0.14
AGTCGGAT	0.041
CGCTATGA	0.0716
ATGCTAGG	-0.031
CGGCGTCC	-0.0903
AGTCGCCC	-0.172
ACCGCTAC	-0.0553
CGAGCCCA	-0.0279
AAGTCATT	0.0384
CAATGAGC	-0.00644
TATAAAAA	0.176
AGAGGTAG	-0.0342
ATGCATGA	0.202
CTAGACTC	-0.256
AAGCCTAA	-0.037
ATACCGTC	0.141
CAATTGTG	0.098
AAGTCTCC	-0.161
CATGAGCA	-0.079
CGACTACG	-0.122
CTGATACA	-0.0853
CGCAGATC	-0.242
AAACTCAT	0.205

Sequence	PBM E-score
AGCCACAC	0.0698
TAAACTCA	0.18
CGGCGCCG	0.187
CGAGTCAA	-0.0176
AGACATGC	-0.279
AACTCTCC	-0.107
CGAAACAG	0.0646
TGCGTGAA	0.00272
GCTACCAC	-0.0775
AGGTGCAT	-0.108
CAGCTGTC	0.0733
AACACCGA	0.0411
AAGGGGTA	-0.169
GCATCACA	-0.0285
GTCTTGCA	-0.00202
AGCTCGCC	0.00272
AATCTACT	0.126
GCATCGAA	-0.11
CTGCGGGA	-0.235
